Source: PubChem BioAssay AID504834 (National Center for Advancing Translational Sciences (NCATS), 2011)
In all, about 320,000 compounds went through this assay and about 22,000 (6.9%) were called active. Inconclusive results, whose numbers are uncertain, are shown with a selection of clear calls. Calls follow the shape of the dose curve; as a rule, active = well fitted inhibition curve with a large enough effect; inconclusive = small, poorly fitted or top-dose-only effect, or another doubt; inactive = no such curve, though single readings can be large or run the other way. A potency beside an inconclusive call is a rough fit, not a confirmed value.

Assay: Primary qHTS for delayed death inhibitors of the malarial parasite plastid, 96 hour incubation
Settings: P. falciparum luciferase reporter growth; series mostly up to 28.7 µM
Method in brief: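 Erythrocytes infected with luciferase-expressing P. falciparum were dispensed at 2% hematocrit and 0.05% parasitemia (final), then incubated with compounds 96 hours at 37 C in 5% CO2. Luminescence after detection reagent addition reported growth.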
% is scaled to controls: 0 for no effect and ±100 for the full control effect; potency is read from the fitted curve at half-maximal effect.

SMILES | Potency | activity change, negative = inhibition
CCCCNC(=O)c1oc2ccc(S(=O)(=O)N3CCCC3)cc2c1C | inconclusive: 10.4 µM [inhibitor, single point] | –
O=C(c1cc([N+](=O)[O-])cc([N+](=O)[O-])c1)N1CCN(Cc2ccc3c(c2)OCO3)CC1 | inconclusive: 3.7 µM [inhibitor, full curve, poor fit] | –
CCC(=O)N1c2ccc(S(=O)(=O)CCC(=O)N3CCN(c4ccccc4)CC3)cc2CC1C (configuration not stated) | inactive | –
CCOC(=O)c1ccccc1NC(=O)CN(c1ccccc1OC)S(C)(=O)=O | inconclusive: 0.522 µM [inhibitor, full curve, poor fit] | –
Cc1ccc(C(=O)N(C)Cc2ccc(N3CCOCC3)cc2)cc1S(=O)(=O)NCc1ccccc1 | inconclusive: 10.4 µM [inhibitor, single point] | –
COc1ccccc1/C=C/CN1CCSCC1 | inconclusive: 8.28 µM [inhibitor, partial curve] | –
Cn1c2ccccc2c2cnn(CC(=O)NCCCN3CCN(c4ccccc4F)CC3)c(=O)c21 | inactive | –
O=C(COc1ccc2ccccc2c1)N1CCCC1 | inactive | –
COC(=O)c1ccc(C(=O)OC)c(NC(=O)CS(=O)(=O)Cc2ccccc2)c1 | active: 5.22 µM | –
Cc1ccc2oc(=O)c3cnn(CC(=O)N(Cc4ccco4)C4CCCCC4)c3c2c1 | inconclusive: 18.5 µM [inhibitor, single point] | –
CCCOC(=O)c1ccccc1C(=O)OCCC | inactive | –
COC(=O)CNC(c1ccccc1)c1cc(Br)ccc1NS(=O)(=O)c1ccccc1 (configuration not stated) | inactive | –
O=C(c1ccc(Cl)c(Cl)c1)N1CCC(=O)N(C(COCc2ccc(Cl)cc2)Cc2ccccc2)CC1 (configuration not stated) | inconclusive: 18.5 µM [inhibitor, single point] | –
O=C(Nc1ccccc1)N1CCn2c1nc1ccccc12 | inactive | –
COc1ccc(NC(=O)c2ccco2)cc1NC(=O)c1c(OC)cccc1OC | active: 2.33 µM | –
Cc1ccc(S(=O)(=O)N2[C@@H](c3ccc(Cl)cc3)C(C(=O)O)=CC[C@H]2c2ccc(Cl)cc2)cc1 | inconclusive: 3.29 µM [inhibitor, partial curve, poor fit] | –
COc1cccc(-n2c(SCC(=O)Nc3nc4ccccc4s3)nc3ccccc3c2=O)c1 | inconclusive: 11.7 µM [inhibitor, partial curve, poor fit] | –
CC(=O)Nc1ccccc1N(CC(O)Cn1c2ccccc2c2ccccc21)S(=O)(=O)c1ccc(C)cc1 (configuration not stated) | inconclusive: 5.22 µM [inhibitor, partial curve, poor fit] | –
C=CCN(c1ccccc1)S(=O)(=O)c1cccc(C(=O)NCc2ccncc2)c1 | inactive | –
O=C(O)c1ccc(Cl)cc1Nc1nc2cc(Cl)ccc2o1 | inconclusive: 2.94 µM [inhibitor, partial curve, poor fit] | –
C[C@@H]1CCC2[C@](C)(CO)[C@@H](O)CC[C@]2(C)[C@@]12C[C@](CO)(CC(=O)O)CO2 (some centres not stated) | inactive | –
COc1ccc(/C=N/N2C(=O)CN(C(=O)c3ccccc3)C2c2ccc(OC)cc2)cc1 (configuration not stated) | inactive | –
CCc1nnc(NS(=O)(=O)c2ccc(NC(=O)Nc3ccc(OC)cc3)cc2)s1 | inconclusive: 16.5 µM [inhibitor, single point] | –

SMILES | Potency | activity change, negative = inhibition
CNc1ccc(Br)cc(C(=O)/C=C/c2cccc(OC)c2OC)c1=O | inconclusive: 18.5 µM [inhibitor, single point] | –
COc1ccc(NC(=O)c2nc[nH]c2C(=O)N[C@H](C)c2ccccc2)cc1 | inconclusive: 9.28 µM [inhibitor, single point] | –
COc1cccc(/C=N/Nc2nc(-c3cccnc3)nc3ccccc23)c1 | inconclusive: 13.1 µM [inhibitor, single point] | –
Cc1nn(C)cc1C(C(=O)NC1CCCCC1)N(Cc1ccc(F)cc1)C(=O)c1cnccn1 (configuration not stated) | inconclusive: 0.0738 µM [inhibitor, partial curve, poor fit] | –
CC(C)(C)n1nnnc1C(c1cccc(C#N)c1)N1CCCCCC1 (configuration not stated) | inconclusive: 0.0928 µM [inhibitor, full curve, poor fit] | –
CCN(CC)c1ccc(/C=N/NC(=S)NCc2ccco2)cc1 | inconclusive: 18.5 µM [inhibitor, single point] | –
COc1ccc(NC2CCCN(C(=O)CCc3ccccc3F)C2)cc1 (configuration not stated) | inconclusive: 10.4 µM [inhibitor, partial curve, poor fit] | –
Cc1cc(=O)oc2c(C)c(OCC(=O)N3CC[C@@]4(O)CCCC[C@H]4C3)ccc12 | inconclusive: 18.5 µM [inhibitor, single point] | –
CC(OC(=O)c1ccc(NC(=O)CC#N)cc1)C(=O)Nc1nc(-c2ccccc2)cs1 (configuration not stated) | inactive | –
COc1ccc([C@H]2CC(=O)C=C(c3ccc(-c4ccccc4)c(F)c3)C2)cc1 | inactive | –
COc1ccc2oc(=O)c(-c3nnc(N)s3)cc2c1 | inconclusive: 9.28 µM [inhibitor, single point] | –
O=C(Nc1nnc(S(=O)(=O)N2CCCCCC2)s1)c1ccc(Cl)cc1 | inconclusive: 13.1 µM [inhibitor, single point] | –
Cc1cccc(C)c1NC(=O)N1CC=C(n2c(=O)[nH]c3ccccc32)CC1 | inconclusive: 18.5 µM [inhibitor, single point] | –
COc1ccc(CCC(=O)NNC(=O)Nc2ccc(OC)c(OC)c2)cc1 | inconclusive: 11.7 µM [inhibitor, single point] | –
Cc1ccn2c(C(=O)CSc3ccccc3)c(C)nc2c1 | inconclusive: 16.5 µM [inhibitor, single point] | –
COc1ccc(C2CC(c3ccccc3)Nc3nc(NC(=O)c4ccco4)nn32)cc1 (configuration not stated) | inconclusive: 18.5 µM [inhibitor, single point] | –
O=C(O)/C=C/c1coc2ccc(F)cc2c1=O | inactive | –
COc1ccc(Cl)cc1NC(=O)CSc1nnc(Cc2cccn2C)n1-c1ccc(F)cc1 | inconclusive: 18.5 µM [inhibitor, single point] | –
CC(C)Cc1[nH]c(=O)c(C#N)c2c1CCC2 | inconclusive: 0.738 µM [inhibitor, full curve, poor fit] | –
CCC(=O)c1cn(CC(=O)O)c2ccccc12 | inconclusive: 4.65 µM [inhibitor, partial curve] | –
CCOC(=O)N1CCC(NC(=O)CN2C(=O)CCSc3ccccc32)CC1 | inconclusive: 0.586 µM [inhibitor, full curve, poor fit] | –
CCCNC(=O)Cn1nc([N+](=O)[O-])c([N+](=O)[O-])c1C | inconclusive: 5.22 µM [inhibitor, partial curve] | –
Cc1c(NC(=O)c2n[nH]c(=O)c3ccccc23)c(=O)n(-c2ccccc2)n1C | – | inactive: 2.49% [at 5.75 µM]

SMILES | Potency | activity change, negative = inhibition
Nc1nc(SCC(=O)Nc2ccc(Oc3ccccc3)cc2)n[nH]1 | inconclusive: 16.5 µM [inhibitor, single point] | –
CCCOc1ccc(C2CC(=O)Nc3cc(OC)c(OC)cc32)cc1 (configuration not stated) | inconclusive: 18.5 µM [inhibitor, single point] | –
COc1ccc(Cl)cc1NC(=O)C(C)N(C)Cc1ccc(C(F)(F)F)cc1 (configuration not stated) | active: 2.08 µM | –
Cc1cc(C)c(NC(=O)C2CCC(=O)N2)c(C)c1 (configuration not stated) | inactive | –
CCCN(Cc1nnc(-c2cccs2)o1)C(=O)c1cc(S(=O)(=O)N2CCOCC2)ccc1C | inconclusive: 18.5 µM [inhibitor, single point] | –
CC1(NC(=O)Cn2cc(C(F)(F)F)ccc2=O)CCS(=O)(=O)C1 (configuration not stated) | inconclusive: 18.5 µM [inhibitor, single point] | –
Cc1nn(-c2ccc(F)cc2)c2sc(C(=O)OCC(=O)N3CCC(C)CC3)cc12 | inconclusive: 18.5 µM [inhibitor, single point] | –
Cn1cccc1-c1cc(C(=O)N/N=C/C=C/c2ccccc2)[nH]n1 | inconclusive: 5.22 µM [inhibitor, partial curve, poor fit] | –
O=C(CNS(=O)(=O)c1ccc(Br)cc1)Nc1ccc2c(c1)OCCO2 | inactive | –
CCOc1ccc(CCNC(=O)COC(=O)CNS(=O)(=O)c2ccc(NC(C)=O)cc2)cc1OCC | active: 8.28 µM | –
O=C(Nc1ccnn1C1CCN(Cc2cccnc2)CC1)c1ccccc1Cl | inconclusive: 10.4 µM [inhibitor, partial curve] | –
Cc1cc(NC(=O)C(C)SCC(=O)Nc2ccccc2OC(F)F)no1 (configuration not stated) | inactive | –
COc1cc(CN(C)CCc2ccccc2)ccc1OCc1ccccc1 | inconclusive: 16.5 µM [inhibitor, partial curve, poor fit] | –
Clc1ccccc1C1CC(c2ccccc2)=Nc2ccccc2N1 (configuration not stated) | inactive | –
Cc1cc(C)c2sc(N(CCCN(C)C)C(=O)c3ccc(S(=O)(=O)N(C)Cc4ccccc4)cc3)nc2c1 | inconclusive: 18.5 µM [inhibitor, single point] | –
COc1ccc(-c2noc(COC(=O)c3ccco3)n2)cc1OC | inactive | –
C[n+]1c(-c2ccccc2)cc(-c2ccc(Cl)cc2)cc1-c1ccccc1 | inconclusive: 18.5 µM [inhibitor, single point] | –
CCC(=O)NC(=S)Nc1cccc(C(C)=O)c1 | inactive | –
Cc1ccc(N(C(C)C(=O)Nc2cc(Cl)ccc2Oc2ccccc2)S(C)(=O)=O)cc1 (configuration not stated) | active: 7.38 µM | –
O=C(NCc1ccco1)C1CCCN(S(=O)(=O)c2ccc(Br)cc2)C1 (configuration not stated) | active: 14.7 µM | –
COC(=O)Cc1ccc(NC(=O)C(c2ccccc2)c2ccccc2)cc1 | inconclusive: 18.5 µM [inhibitor, single point] | –

Of the compounds above, these have bromine:
SMILES | Potency | activity change, negative = inhibition
COC(=O)CNC(c1ccccc1)c1cc(Br)ccc1NS(=O)(=O)c1ccccc1 (configuration not stated) | inactive | –
CNc1ccc(Br)cc(C(=O)/C=C/c2cccc(OC)c2OC)c1=O | inconclusive: 18.5 µM [inhibitor, single point] | –
O=C(CNS(=O)(=O)c1ccc(Br)cc1)Nc1ccc2c(c1)OCCO2 | inactive | –
O=C(NCc1ccco1)C1CCCN(S(=O)(=O)c2ccc(Br)cc2)C1 (configuration not stated) | active: 14.7 µM | –
